Some results were stated once for a whole list of compounds, not compound by compound. At least one structure is not confirmed: it was looked up by name or label, or the drawing left a doubt.
target: T1, rat mGlu1a receptor (Rattus norvegicus, UniProt P23385); experiment: [Ca2+]i measurement (FLIPR) on mGlu1a transfected EBNA cells; type: cell-based; details: mode of action, in words
T1 construct: expressed in transfected cells; host or cells: EBNA cells (transient transfection)
Experimental: cDNA encoding for rat mGlula receptor obtained from Prof.
[Ca^2+]i measurement were performed on mGlu1a transfected EBNA cells after incubation of the cells with Fluo-3 AM (0.5 μM final concentration) for 1 hour at 37° C. followed by 4 washes with assay buffer (DMEM supplemented with Hank's salt and 20 mM HEPES). [Ca^2+]i measurement were done using a fluorometric imaging plate reader (FLIPR, Molecular Devices Corporation, La Jolla, Calif., USA). When compounds were evaluated as antagonists they were tested against 10 μM glutamate as agonist.
The inhibition (antagonists) or activation (agonists) curves were fitted with a four parameter logistic equation giving EC50, IC50and Hill coefficient using the iterative non linear curve fitting software Origin (Microcal Software Inc., Northampton, Mass., USA).

By UniProt entry, the sequences of proteins in these tests, tags left out. Residues count along the entry.
UniProt P23385, 19-1199: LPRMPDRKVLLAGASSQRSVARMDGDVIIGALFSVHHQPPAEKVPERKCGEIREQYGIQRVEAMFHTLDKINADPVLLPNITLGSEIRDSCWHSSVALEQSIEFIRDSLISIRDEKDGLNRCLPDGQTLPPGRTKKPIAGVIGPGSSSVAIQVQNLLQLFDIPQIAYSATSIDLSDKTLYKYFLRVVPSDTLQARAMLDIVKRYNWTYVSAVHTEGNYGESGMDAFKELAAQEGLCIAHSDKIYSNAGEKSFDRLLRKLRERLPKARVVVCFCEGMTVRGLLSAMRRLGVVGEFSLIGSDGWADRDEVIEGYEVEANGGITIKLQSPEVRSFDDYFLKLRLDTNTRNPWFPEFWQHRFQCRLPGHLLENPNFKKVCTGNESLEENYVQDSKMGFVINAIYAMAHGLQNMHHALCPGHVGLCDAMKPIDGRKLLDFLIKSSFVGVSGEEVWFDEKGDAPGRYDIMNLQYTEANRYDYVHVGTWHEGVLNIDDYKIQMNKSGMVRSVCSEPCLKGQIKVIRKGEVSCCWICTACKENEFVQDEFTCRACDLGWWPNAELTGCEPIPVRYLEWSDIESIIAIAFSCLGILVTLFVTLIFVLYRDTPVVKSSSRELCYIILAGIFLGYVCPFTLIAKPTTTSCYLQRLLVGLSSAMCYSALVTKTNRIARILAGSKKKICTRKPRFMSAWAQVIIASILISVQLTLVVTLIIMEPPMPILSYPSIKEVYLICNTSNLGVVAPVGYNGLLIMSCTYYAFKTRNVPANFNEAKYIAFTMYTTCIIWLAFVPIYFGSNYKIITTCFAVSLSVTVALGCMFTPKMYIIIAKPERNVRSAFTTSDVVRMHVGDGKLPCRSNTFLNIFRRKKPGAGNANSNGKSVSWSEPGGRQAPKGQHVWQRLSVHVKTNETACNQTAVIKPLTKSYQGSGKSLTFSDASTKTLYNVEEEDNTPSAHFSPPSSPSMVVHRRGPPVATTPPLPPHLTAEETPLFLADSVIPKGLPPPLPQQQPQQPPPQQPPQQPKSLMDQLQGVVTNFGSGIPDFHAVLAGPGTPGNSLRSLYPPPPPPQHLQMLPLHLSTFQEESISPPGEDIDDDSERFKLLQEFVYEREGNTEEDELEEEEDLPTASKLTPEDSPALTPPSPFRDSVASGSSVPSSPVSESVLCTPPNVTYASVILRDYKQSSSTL

Agonist or antagonist on group I mGlu receptor, agonists:
CCCCCCNC(=O)C(c1ccc(F)c(F)c1)c1ccccn1 (racemic) [Example 23, (RS)-2-(3,4-Difluoro-phenyl)-N-hexyl-2-pyridin-2-yl-acetamide]
CCCCCCNC(=O)C(c1ccc([N+](=O)[O-])cc1)c1cccnc1 (racemic) [Example 24, (RS)-N-Hexyl-2-(4-nitrophenyl)-2-pyridin-3-yl-acetamide]
CCCCCNC(=O)C(c1ccccc1)c1ccccc1 [Example 1, N -Pentyl-2,2-diphenyl-acetamide]
CCCNC(=O)C(c1ccccc1)c1ccccc1 [Example 2, 2,2-Diphenyl-N-propyl-acetamide]
CCCCNC(=O)C(c1ccccc1)c1ccccc1 [Example 5, N-Butyl-2,2-diphenyl-acetamide]
O=C(NC1CC1)C(c1ccccc1)c1ccccc1 [Example 7, N-Cyclopropyl-2,2-diphenyl-acetamide]
CCCCCCCNC(=O)C(c1ccccc1)c1ccccc1 [Example 8, N-Heptyl-2,2-diphenyl-acetamide]
O=C(NCC1CC1)C(c1ccccc1)c1ccccc1 [Example 10, N-Cyclopropylmethyl-2,2-diphenyl-acetamide]
CCNC(=O)C(c1ccccc1)c1ccccc1 [Example 12, N-Ethyl-2,2-diphenyl-acetamide]
C=CCNC(=O)C(c1ccccc1)c1ccccc1 [Example 13, N-Allyl-2,2-diphenyl-acetamide]
C#CCNC(=O)C(c1ccccc1)c1ccccc1 [Example 14, 2,2-Diphenyl-N-prop-2-ynyl-acetamide]
CC(C)CCNC(=O)C(c1ccccc1)c1ccccc1 [Example 15, N-(3-Methyl-butyl)-2,2-diphenyl-acetamide]
CCCC=CCNC(=O)C(c1ccccc1)c1ccccc1 [Example 16, N-Hex-2-enyl-2,2-diphenyl-acetamide]
CC=CCCCNC(=O)C(c1ccccc1)c1ccccc1 [Example 17, N-Hex-4-enyl-2,2-diphenyl-acetamide]
COCCCCCNC(=O)C(c1ccccc1)c1ccccc1 [Example 18, N-(5-Methoxy-pentyl)-2,2-diphenyl-acetamide]
COCCCCNC(=O)C(c1ccccc1)c1ccccc1 [Example 19, N-(4-Methoxy-butyl)-2,2-diphenyl-acetamide]
CCOCCNC(=O)C(c1ccccc1)c1ccccc1 [Example 20, N-(2-Ethoxy-ethyl)-2,2-diphenyl-acetamide]
CCCOCCNC(=O)C(c1ccccc1)c1ccccc1 [Example 21, 2,2-Diphenyl-N-(2-propoxy-ethyl)-acetamide]
C#CCCCNC(=O)C(c1ccccc1)c1ccccc1 [Example 28, N-Pent-4-ynyl-2,2-diphenyl-acetamide]

From patent US6548522B1, “Method for treating conditions related to the glutamate receptor using carboxylic acid amide derivatives” (Hoffmann-La Roche Inc., priority 1999, dated 2003)
